Measurements: PubChem BioAssay AID248 (DTP/NCI, 2004)
The list does not hold the whole screen: it gathers tests that were run many times, whatever their T/C, doses with no T/C, and many T/C values between a quarter and a half above the control. Other doses and runs of a compound stand elsewhere. T/C gives the treated animals as a percentage of the vehicle group. Some entries give survivors of the animals treated and no T/C: the source files T/C as zero there, which appears to mark a toxic dose or a test without result, not a measured value. Some survivor counts are full or nearly so, which does not show that the dose was tolerated: the source hardly ever lists a survival T/C far under the control, and the zero likely stands for such cases as well. Survivors were counted at the toxicity check, usually on the fifth day, unless a day is given; later deaths do not show. Schedule codes are those of the source, taken here to give the interval after Q, in days (D) or hours (H), and the number of doses after X. Some schedules carry Z or #; the key to these is not given. Some doses were run more than once; the values are given in rising order. For survival time, this PubChem deposit counts one and a half times the control or more as active, and values a quarter to a half above the control carry no call in these data; other NCI protocols may use other cut-offs. Some T/C values carry the count of animals alive at the toxicity check (mostly the fifth day); without a count, all were alive then.

Tested on: L1210 leukemia ip in BDF1 mice, survival T/C
Assay: NCI In Vivo Anticancer Drug Screen. Data for tumor model L1210 Leukemia (intraperitoneal) in B6D2F1 (BDF1) mice
Details: T/C endpoint: mean survival time, higher T/C = longer survival
[1] = dose: 400.0 mg/kg/injection, schedule: Q01DX009 (ip), vehicle: saline
[2] = dose: 400.0 mg/kg/injection, schedule: Q04DX003 (ip), vehicle: saline with Tween-80
[3] = dose: 50.0 mg/kg/injection, schedule: Q01DX009 (ip), vehicle: saline
[4] = dose: 100.0 mg/kg/injection, schedule: Q01DX009 (ip), vehicle: saline
[5] = dose: 200.0 mg/kg/injection, schedule: Q01DX009 (ip), vehicle: saline
[6] = dose: 80.0 mg/kg/injection, schedule: Q01DX001 (ip), vehicle: saline
[7] = dose: 400.0 mg/kg/injection, schedule: Q01DX009 (ip), vehicle: saline with Tween-80
[8] = dose: 400.0 mg/kg/injection, schedule: Q01DX001 (ip), vehicle: saline
[9] = dose: 200.0 mg/kg/injection, schedule: Q04DX003 (ip), vehicle: saline
[10] = dose: 400.0 mg/kg/injection, schedule: Q04DX003 (ip), vehicle: saline
[11] = dose: 200.0 mg/kg/injection, schedule: Q01DX001 (ip), vehicle: saline
[12] = dose: 2.0 mg/kg/injection, schedule: Q01DX001 (ip), vehicle: saline

SMILES: CN(C)c1ccc(/C=C\c2ccnc3ccccc23)cc1
- survivor count (dose: 16.0 mg/kg/injection, schedule: Q01DX Z (ip), vehicle: methylcellulose (MC)): 6 of 6
- survivor count (dose: 24.0 mg/kg/injection, schedule: Q01DX Z (ip), vehicle: methylcellulose (MC)): 6 of 6
- survivor count (dose: 36.0 mg/kg/injection, schedule: Q01DX Z (ip), vehicle: methylcellulose (MC)): 6 of 6

SMILES: CCOC(=O)c1cnc2c(OC)cccc2c1Cl
- survivor count [1]: 4 of 6

SMILES: Cc1c(C)c(O)c(Br)c(C)c1O (tested in a mixture with another compound)
- survivor count (dose: 200.0 mg/kg/injection, schedule: Q04DX003 (ip), vehicle: saline with Tween-80): 6 of 6
- survivor count [2]: 3 of 6

SMILES: COc1ccc(N2C(=O)OC3(CCNCC3)C2=O)cc1
- survivor count (dose: 100.0 mg/kg/injection, schedule: Q01DX001 (ip), vehicle: carboxymethylcellulose (CMC)): 2 of 6
- survivor count (dose: 200.0 mg/kg/injection, schedule: Q01DX001 (ip), vehicle: carboxymethylcellulose (CMC)): 0 of 6
- survivor count (dose: 400.0 mg/kg/injection, schedule: Q01DX001 (ip), vehicle: carboxymethylcellulose (CMC)): 0 of 6

SMILES: CCc1ccccc1N/N=C(\Cl)C(C)=O
- survivor count [3]: 2 of 6
- survivor count [4]: 2 of 6
- survivor count [5]: 0 of 6

SMILES: NC(N)=NCCN=C(N)N
- survivor count (dose: 240.0 mg/kg/injection, schedule: Q01DX Z (oral), vehicle: saline): 5 of 6
- survivor count (dose: 480.0 mg/kg/injection, schedule: Q01DX Z (oral), vehicle: saline): 2 of 6

SMILES: ClC(Cl)[Si](Cl)(Cl)Cl
- survivor count (dose: 75.0 mg/kg/injection, schedule: Q01DX001 (ip), vehicle: saline): 0 of 6
- survivor count (dose: 150.0 mg/kg/injection, schedule: Q01DX001 (ip), vehicle: saline): 0 of 6
- survivor count (dose: 300.0 mg/kg/injection, schedule: Q01DX001 (ip), vehicle: saline): 0 of 6

SMILES: O=C(C[n+]1ccccc1-c1ccccn1)c1ccccc1
- survivor count [6]: 0 of 6

SMILES: CN=C(c1ccc(NC(=O)c2ccc(C(=O)Nc3ccc(C(=NC)N4CCOCC4)cc3)cc2)cc1)N1CCOCC1
- survivor count (dose: 30.0 mg/kg/injection, schedule: Q01DX Z (ip), vehicle: carboxymethylcellulose (CMC)): 1 of 6
- survivor count (dose: 60.0 mg/kg/injection, schedule: Q01DX Z (ip), vehicle: carboxymethylcellulose (CMC)): 0 of 6
- survivor count (dose: 120.0 mg/kg/injection, schedule: Q01DX Z (ip), vehicle: carboxymethylcellulose (CMC)): 0 of 6

SMILES: CCCC[As](=O)(O)CC(C)C
- survivor count (dose: 25.0 mg/kg/injection, schedule: Q01DX009 (ip), vehicle: saline): 0 of 3
- survivor count [3]: 0 of 3
- survivor count [4]: 0 of 3 and 0 of 6
- survivor count [5]: 0 of 6
- survivor count [1]: 0 of 6

SMILES: C[S+](C)C12CC3CC(CC(C3)C1)C2
- survivor count (dose: 200.0 mg/kg/injection, schedule: Q04DX002 (ip), vehicle: saline): 0 of 3
- survivor count (dose: 400.0 mg/kg/injection, schedule: Q04DX002 (ip), vehicle: saline): 1 of 3

SMILES: CCOc1ccc(NC(=S)NC(=O)c2ccccc2F)cc1
- survivor count (dose: 100.0 mg/kg/injection, schedule: Q01DX009 (ip), vehicle: saline with Tween-80): 6 of 6
- survivor count [7]: 6 of 6

SMILES: C=CS(=O)Cc1ccccc1 (centres undefined)
- survivor count (dose: 100.0 mg/kg/injection, schedule: Q04DX002 (ip), vehicle: saline with Tween-80): 1 of 3
- survivor count (dose: 200.0 mg/kg/injection, schedule: Q04DX002 (ip), vehicle: saline with Tween-80): 0 of 3
- survivor count (dose: 400.0 mg/kg/injection, schedule: Q04DX002 (ip), vehicle: saline with Tween-80): 0 of 3

SMILES: CCOC(=O)C(CCSC(C)=O)SC(C)=O (centres undefined)
- survivor count (dose: 200.0 mg/kg/injection, schedule: Q01DX009 (ip), vehicle: saline with Tween-80): 6 of 6
- survivor count [2]: 0 of 6

SMILES: NC(=O)Cc1csc2ccccc12
- survivor count [8]: 1 of 4

SMILES: N=C(N)SCc1csc(N)n1
- survivor count [9]: 1 of 6
- survivor count [1]: 0 of 6
- survivor count [10]: 0 of 6

SMILES: COc1cccc(C(=O)O)c1OS(=O)(=O)c1ccccc1
- survivor count (dose: 200.0 mg/kg/injection, schedule: Q04DX003 (ip), vehicle: Klucel (hydroxypropylcellulose) (HPC)): 6 of 6

SMILES: O=S(=O)(Nc1ccccn1)c1ccccc1
- survivor count (dose: 100.0 mg/kg/injection, schedule: Q01DX009 (ip), vehicle: Klucel (hydroxypropylcellulose) (HPC)): 6 of 6

SMILES: CC(C)(C)C1=C[P+](c2ccccc2)(c2ccccc2)C(C(C)(C)C)=C[P+]1(c1ccccc1)c1ccccc1
- survivor count (dose: 100.0 mg/kg/injection, schedule: Q04DX003 (ip), vehicle: saline): 0 of 6
- survivor count [9]: 0 of 6
- survivor count [10]: 0 of 6

SMILES: [O-][n+]1ccc(N2CCOCC2)cc1
- survivor count [11]: 1 of 6
- survivor count [8]: 0 of 6

SMILES: O=C(CCCl)c1ccccc1
- survivor count (dose: 400.0 mg/kg/injection, schedule: Q04DX002 (ip), vehicle: Klucel (hydroxypropylcellulose) (HPC)): 0 of 3

SMILES: CO[C@H]1Nc2c(ccc(C)c2O)C(=O)N2C=C(/C=C/C(N)=O)C[C@@H]12
- T/C (dose: 0.2 mg/kg/injection, schedule: Q01DX015 (ip), vehicle: saline): 125 % of control [5 of 6 alive]
- survivor count (dose: 0.33 mg/kg/injection, schedule: Q04DX003 (ip), vehicle: saline with Tween-80): 2 of 6
- T/C (dose: 0.5 mg/kg/injection, schedule: Q01DX001 (ip), vehicle: saline): 125 and 138 % of control
- survivor count (dose: 0.66 mg/kg/injection, schedule: Q04DX003 (ip), vehicle: saline with Tween-80): 3 of 6
- T/C (dose: 0.89 mg/kg/injection, schedule: Q01DX001 (ip), vehicle: saline): 145 % of control
- T/C (dose: 0.9 mg/kg/injection, schedule: Q01DX001 (ip), vehicle: saline): 130 % of control
- survivor count (dose: 1.0 mg/kg/injection, schedule: Q01DX015 (ip), vehicle: saline): 0 of 6
- survivor count (dose: 1.0 mg/kg/injection, schedule: Q04DX003 (ip), vehicle: saline with Tween-80): 5 of 6
- T/C (dose: 1.3 mg/kg/injection, schedule: Q01DX001 (ip), vehicle: saline): 134 % of control [3 of 4 alive]
- survivor count (dose: 1.5 mg/kg/injection, schedule: Q04DX003 (ip), vehicle: saline with Tween-80): 2 of 6
- T/C [12]: 140, 142, 148 [5 of 6 alive], 151 % of control
- survivor count [12]: 1 of 4
- survivor count (dose: 3.0 mg/kg/injection, schedule: Q01DX001 (ip), vehicle: saline): 1 of 6, 1 of 4, 2 of 4
- survivor count (dose: 4.0 mg/kg/injection, schedule: Q01DX001 (ip), vehicle: saline): 0 of 4
- survivor count (dose: 5.0 mg/kg/injection, schedule: Q01DX001 (ip), vehicle: saline): 0 of 4
- survivor count (dose: 8.0 mg/kg/injection, schedule: Q01DX001 (ip), vehicle: saline): 0 of 4
- survivor count (dose: 10.0 mg/kg/injection, schedule: Q01DX001 (ip), vehicle: saline): 0 of 4
- survivor count (dose: 20.0 mg/kg/injection, schedule: Q01DX001 (ip), vehicle: saline): 0 of 4
- survivor count (dose: 40.0 mg/kg/injection, schedule: Q01DX001 (ip), vehicle: saline): 0 of 4
- survivor count [6]: 0 of 4
- survivor count (dose: 100.0 mg/kg/injection, schedule: Q01DX001 (ip), vehicle: saline): 0 of 4
- survivor count [11]: 0 of 4
- survivor count [8]: 0 of 4

SMILES: O=C(/C=C/c1cccc([N+](=O)[O-])c1)NCCBr
- survivor count (dose: 400.0 mg/kg/injection, schedule: Q01DX009 (ip), vehicle: Klucel (hydroxypropylcellulose) (HPC)): 3 of 6

SMILES: COc1ccc(OC)c(NC(=O)c2ccc(Cl)c(Cl)c2)c1
- survivor count [7]: 6 of 6

SMILES: CSC(N)=Nc1cccc(C)c1C
- survivor count [5]: 2 of 6
- survivor count [10]: 1 of 6
